From the supplement of paper PMC4604168 (melanoma cell lines)
This is one part of the list. Repeats are few or missing, and single values can be far off.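 Imaging used 1,536-well plates; nuclei positive for cleaved PARP by antibody were divided by total DNA-stained nuclei to yield the apoptosis fraction. Doses for screening kept most cells viable, and cell lines differ markedly in resting and induced cleaved-PARP levels.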

Tested on: COLO800
Test: cleaved PARP positive nuclei fraction relative to DMSO control; melanoma cells; higher = more apoptosis
Conditions: library dose: low library concentration; 72 h

SMILES	cleaved PARP positive nuclei fraction
O=c1[nH]nc(Sc2ncc([N+](=O)[O-])s2)n1-c1ccc2c(c1)OCCO2 + N#Cc1c(O)c2c(-c3ccc(-c4ccccc4O)cc3)csc2[nH]c1=O [A769662] (first compound 0.2 µM, partner dose 2 µM)	68.3%
O=c1[nH]nc(Sc2ncc([N+](=O)[O-])s2)n1-c1ccc2c(c1)OCCO2 + COc1ccc2c(c1)CCC1C2CCC2(C)C(NCCCCCCN3C(=O)C=CC3=O)CCC12 [U73122] (first compound 0.2 µM, partner dose 0.4 µM)	112%
N#CC[C@H](C1CCCC1)n1cc(-c2ncnc3[nH]ccc23)cn1 [ruxolitinib] + O=C(Nc1ccccc1)c1cc([N+](=O)[O-])ccc1Cl [GW9662] (first compound 1 µM, partner dose 2 µM)	95.2%
O=C(/C=C/c1cccnc1)NCCCCC1CCN(C(=O)c2ccccc2)CC1 + O=c1cc(-c2cccc3c2Sc2ccccc2S3)oc(N2CCOCC2)c1 [KU55933] (first compound 0.01 µM, partner dose 1 µM)	20.9%
CCCCCCCCCCCCCCCCCCOP(=O)([O-])OC1CC[N+](C)(C)CC1 [Perifosine] + Cc1cc([N+](=O)[O-])ccc1NS(=O)(=O)c1cc(Cl)ccc1Cl [FH535] (first compound 0.4 µM, partner dose 1 µM)	93.8%
N#CC[C@H](C1CCCC1)n1cc(-c2ncnc3[nH]ccc23)cn1 [ruxolitinib] + O=S(=O)(c1ccccc1)N(CC(F)(F)F)c1ccc(C(O)(C(F)(F)F)C(F)(F)F)cc1 [T0901317] (first compound 1 µM, partner dose 1.4 µM)	57.7%
Cc1cn(-c2cc(NC(=O)c3ccc(C)c(Nc4nccc(-c5cccnc5)n4)c3)cc(C(F)(F)F)c2)cn1 [nilotinib] + COC(=O)c1sccc1S(=O)(=O)Nc1ccc(Nc2ccccc2)cc1OC [GSK0660] (first compound 0.2 µM, partner dose 1 µM)	74.2%
Cc1ccc(Nc2nccc(N(C)c3ccc4c(C)n(C)nc4c3)n2)cc1S(N)(=O)=O [Pazopanib] + O=C(O)C(=O)Nc1sc2c(c1C(=O)O)CCNC2 [TCS401] (first compound 0.4 µM, partner dose 1.66667 µM)	74.5%
N#CC[C@H](C1CCCC1)n1cc(-c2ncnc3[nH]ccc23)cn1 [ruxolitinib] + COc1ccc(COc2ccc(Cc3cnc(N)nc3N)cc2OC)cc1 [GW2580] (first compound 1 µM, partner dose 1 µM)	30.1%
Cc1ccc(Nc2nccc(N(C)c3ccc4c(C)n(C)nc4c3)n2)cc1S(N)(=O)=O [Pazopanib] + CCc1ccc(CCOc2ccc(CC3SC(=O)NC3=O)cc2)nc1 [pioglitazone] (first compound 0.4 µM, partner dose 2 µM)	97.8%
Cc1cc(Nc2cc(N3CCN(C)CC3)nc(Sc3ccc(NC(=O)C4CC4)cc3)n2)n[nH]1 [Tozasertib] + c1cc(-c2cnn3cc(-c4ccc(OCCN5CCCCC5)cc4)cnc23)ccn1 [Dorsomorphin] (first compound 0.006 µM, partner dose 0.4 µM)	70.2%
Cc1ccc(Nc2nccc(N(C)c3ccc4c(C)n(C)nc4c3)n2)cc1S(N)(=O)=O [Pazopanib] + COC(=O)c1sccc1S(=O)(=O)Nc1ccc(Nc2ccccc2)cc1OC [GSK0660] (first compound 0.4 µM, partner dose 1 µM)	63.2%
COc1cc([C@@H]2c3cc4c(cc3[C@@H](O[C@@H]3O[C@@H]5CO[C@@H](C)O[C@H]5[C@H](O)[C@H]3O)[C@H]3COC(=O)[C@H]23)OCO4)cc(OC)c1O [etoposide] + O=S(=O)(c1ccccc1)N(CC(F)(F)F)c1ccc(C(O)(C(F)(F)F)C(F)(F)F)cc1 [T0901317] (first compound 0.02 µM, partner dose 1.4 µM)	38%
O=c1[nH]nc(Sc2ncc([N+](=O)[O-])s2)n1-c1ccc2c(c1)OCCO2 + c1cc(-c2cnn3cc(-c4ccc(OCCN5CCCCC5)cc4)cnc23)ccn1 [Dorsomorphin] (first compound 0.2 µM, partner dose 0.4 µM)	66.2%
Cc1cc(Nc2cc(N3CCN(C)CC3)nc(Sc3ccc(NC(=O)C4CC4)cc3)n2)n[nH]1 [Tozasertib] + Oc1cc(-c2nc(-c3ccccc3)[nH]c2-c2ccncc2)ccc1Cl [L779450] (first compound 0.006 µM, partner dose 0.2 µM)	64.8%
Cc1cc(Nc2cc(N3CCN(C)CC3)nc(Sc3ccc(NC(=O)C4CC4)cc3)n2)n[nH]1 [Tozasertib] + Cn1cc(/C=C2\C(=O)Nc3cccnc32)c2ccccc21 [GW441756] (first compound 0.006 µM, partner dose 0.4 µM)	265%
Cc1cn(-c2cc(NC(=O)c3ccc(C)c(Nc4nccc(-c5cccnc5)n4)c3)cc(C(F)(F)F)c2)cn1 [nilotinib] + O=C(O)C(=O)Nc1sc2c(c1C(=O)O)CCNC2 [TCS401] (first compound 0.2 µM, partner dose 1.66667 µM)	104%
Cc1cn(-c2cc(NC(=O)c3ccc(C)c(Nc4nccc(-c5cccnc5)n4)c3)cc(C(F)(F)F)c2)cn1 [nilotinib] + O=S(=O)(c1ccccc1)N(CC(F)(F)F)c1ccc(C(O)(C(F)(F)F)C(F)(F)F)cc1 [T0901317] (first compound 0.2 µM, partner dose 1.4 µM)	54.9%
COc1cc([C@@H]2c3cc4c(cc3[C@@H](O[C@@H]3O[C@@H]5CO[C@@H](C)O[C@H]5[C@H](O)[C@H]3O)[C@H]3COC(=O)[C@H]23)OCO4)cc(OC)c1O [etoposide] + Cc1cc([N+](=O)[O-])ccc1NS(=O)(=O)c1cc(Cl)ccc1Cl [FH535] (first compound 0.02 µM, partner dose 1 µM)	51.7%
N#CC[C@H](C1CCCC1)n1cc(-c2ncnc3[nH]ccc23)cn1 [ruxolitinib] + N#Cc1c(O)c2c(-c3ccc(-c4ccccc4O)cc3)csc2[nH]c1=O [A769662] (first compound 1 µM, partner dose 2 µM)	18.5%
COc1cc([C@@H]2c3cc4c(cc3[C@@H](O[C@@H]3O[C@@H]5CO[C@@H](C)O[C@H]5[C@H](O)[C@H]3O)[C@H]3COC(=O)[C@H]23)OCO4)cc(OC)c1O [etoposide] + O=C1NC(=O)/C(=C/c2ccc(-c3ccc(F)cc3O)o2)S1 [AS252424] (first compound 0.02 µM, partner dose 1 µM)	31.9%
COc1cc([C@@H]2c3cc4c(cc3[C@@H](O[C@@H]3O[C@@H]5CO[C@@H](C)O[C@H]5[C@H](O)[C@H]3O)[C@H]3COC(=O)[C@H]23)OCO4)cc(OC)c1O [etoposide] + CC(C)CCN1c2nc(Nc3cc(F)c(O)c(F)c3)ncc2N(C)C(=O)C1C [BID1870] (first compound 0.02 µM, partner dose 0.2 µM)	224%
Cc1ccc(Nc2nccc(N(C)c3ccc4c(C)n(C)nc4c3)n2)cc1S(N)(=O)=O [Pazopanib] + CCN(CC)CCCCNc1ncc2cc(-c3cc(OC)cc(OC)c3)c(NC(=O)NC(C)(C)C)nc2n1 [PD173074] (first compound 0.4 µM, partner dose 0.1 µM)	77.3%
Cc1cn(-c2cc(NC(=O)c3ccc(C)c(Nc4nccc(-c5cccnc5)n4)c3)cc(C(F)(F)F)c2)cn1 [nilotinib] + COc1ccc2c(c1)CCC1C2CCC2(C)C(NCCCCCCN3C(=O)C=CC3=O)CCC12 [U73122] (first compound 0.2 µM, partner dose 0.4 µM)	67.9%
N#CC[C@H](C1CCCC1)n1cc(-c2ncnc3[nH]ccc23)cn1 [ruxolitinib] + COc1ccc2c(c1)CCC1C2CCC2(C)C(NCCCCCCN3C(=O)C=CC3=O)CCC12 [U73122] (first compound 1 µM, partner dose 0.4 µM)	34.5%
CCCCCCCCCCCCCCCCCCOP(=O)([O-])OC1CC[N+](C)(C)CC1 [Perifosine] + O=C(O)C(=O)Nc1sc2c(c1C(=O)O)CCNC2 [TCS401] (first compound 0.4 µM, partner dose 1.66667 µM)	97.1%
Cc1cn(-c2cc(NC(=O)c3ccc(C)c(Nc4nccc(-c5cccnc5)n4)c3)cc(C(F)(F)F)c2)cn1 [nilotinib] + COc1cc(N2CCC(N3CCN(C)CC3)CC2)ccc1Nc1ncc(Cl)c(Nc2ccccc2S(=O)(=O)C(C)C)n1 [NVP-TAE684] (first compound 0.2 µM, partner dose 0.08 µM)	99.4%
Cc1ccc(Nc2nccc(N(C)c3ccc4c(C)n(C)nc4c3)n2)cc1S(N)(=O)=O [Pazopanib] + O=C(Nc1ccccc1)c1cc([N+](=O)[O-])ccc1Cl [GW9662] (first compound 0.4 µM, partner dose 2 µM)	51.3%
O=C(Nc1cc(C(F)(F)F)cc(C(F)(F)F)c1)c1cc(Cl)ccc1O + O=C(O)C(=O)Nc1sc2c(c1C(=O)O)CCNC2 [TCS401] (first compound 0.016 µM, partner dose 1.66667 µM)	66.4%

Random excerpt: 2 entries already listed.
SMILES	cleaved PARP positive nuclei fraction
N#CC[C@H](C1CCCC1)n1cc(-c2ncnc3[nH]ccc23)cn1 [ruxolitinib] + COc1ccc2c(c1)CCC1C2CCC2(C)C(NCCCCCCN3C(=O)C=CC3=O)CCC12 [U73122] (first compound 1 µM, partner dose 0.4 µM)	34.5%
COc1cc([C@@H]2c3cc4c(cc3[C@@H](O[C@@H]3O[C@@H]5CO[C@@H](C)O[C@H]5[C@H](O)[C@H]3O)[C@H]3COC(=O)[C@H]23)OCO4)cc(OC)c1O [etoposide] + O=C1NC(=O)/C(=C/c2ccc(-c3ccc(F)cc3O)o2)S1 [AS252424] (first compound 0.02 µM, partner dose 1 µM)	31.9%
